The results in this text go back to PubChem BioAssay AID226 (DTP/NCI, 2004).

The list shows only some results of the screen, not a fair sample: it is rich in T/C values a quarter to a half above the control, in often repeated tests (any T/C) and in doses without a T/C. Further doses and runs are listed elsewhere. T/C gives the treated animals as a percentage of the vehicle group. Some entries give survivors of the animals treated and no T/C: the source holds a T/C of zero for them, seemingly a mark for toxic or unscored doses. Some doses without a T/C left all or most animals alive at the check, yet need not have been tolerated: the source hardly ever lists a survival T/C far under the control, and the zero likely stands for such cases as well. Survivors were counted at the toxicity check, usually on the fifth day, unless a day is given; later deaths do not show. Schedules are NCI's codes, read here as Q, the interval in days (D) or hours (H), X, the number of doses. Additions like (4×) say how often a value occurs here. Some doses were run more than once; their values stand side by side, smallest first. Where survival is the endpoint, this PubChem deposit counts one and a half times the control or more as active, and values a quarter to a half above the control carry no call in these data; other NCI protocols may use other cut-offs. Some T/C values carry the count of animals alive at the toxicity check (mostly the fifth day); without a count, all were alive then.

In the assay the test system is B6C3F1 mice, intracerebral ependymoblastoma, median survival T/C. In words: NCI In Vivo Anticancer Drug Screen. Data for tumor model Ependymoblastoma (intracerebral) in B6C3F1 mice. Conditions: T/C endpoint: median survival time, higher T/C = longer survival. The protocol:
The antitumor activity of compounds was measured in mice bearing transplantable tumors. Survival or tumor size were measured and the results are expressed as the measurement made in the treated group (T) divided by the measurement made in the vehicle treated control group (C). The tumor model used in this assay is Ependymoblastoma (intracerebral) in B6C3F1 mice

Setting [1] is: dose: 16.0 mg/kg/injection, schedule: Q01DX005 (ip), vehicle: Klucel (hydroxypropylcellulose) (HPC).
[2] abbreviates: dose: 16.0 mg/kg/injection, schedule: Q01DX005 (ip), vehicle: saline.

For the molecule `O=C1NC2(CCCCC2)C(=O)N1CCN(CCCl)CCCl`, the T/C (dose: 2.0 mg/kg/injection, schedule: Q01DX005 (ip), vehicle: saline, evaluated on day 45) was 101 % of control; the T/C (dose: 2.0 mg/kg/injection, schedule: Q01DX005 (ip), vehicle: saline, evaluated on day 60) is 95 [9 of 10 alive], 103, 107 % of control [9 of 10 alive]; the T/C (dose: 4.0 mg/kg/injection, schedule: Q01DX005 (ip), vehicle: saline, evaluated on day 45) is 101 and 104 % of control; the T/C (dose: 4.0 mg/kg/injection, schedule: Q01DX005 (ip), vehicle: saline, evaluated on day 60) is on record as 96, 103, 104, 123 % of control; the T/C (dose: 8.0 mg/kg/injection, schedule: Q01DX005 (ip), vehicle: saline, evaluated on day 45) was 112 and 128 % of control; the T/C (dose: 8.0 mg/kg/injection, schedule: Q01DX005 (ip), vehicle: saline, evaluated on day 60) is recorded as 103, 106, 116, 121 % of control. The T/C was 130 % of control (dose: 10.0 mg/kg/injection, schedule: Q01DX005 (ip), vehicle: other); 147 % of control under setting [1]; 98 % of control (dose: 16.0 mg/kg/injection, schedule: Q01DX005 (ip), vehicle: saline, evaluated on day 45); 100, 108, 113 % of control (dose: 16.0 mg/kg/injection, schedule: Q01DX005 (ip), vehicle: saline, evaluated on day 60); 122 % of control (dose: 32.0 mg/kg/injection, schedule: Q01DX005 (ip), vehicle: saline, evaluated on day 45); 117 and 125 % of control (dose: 32.0 mg/kg/injection, schedule: Q01DX005 (ip), vehicle: saline, evaluated on day 60). Further, the survivor count (dose: 12.0 mg/kg/injection, schedule: Q01DX005 (ip), vehicle: Klucel (hydroxypropylcellulose) (HPC)) is recorded as 10 of 10; the survivor count (dose: 12.0 mg/kg/injection, schedule: Q01DX005 (oral), vehicle: Klucel (hydroxypropylcellulose) (HPC)) was 10 of 10; the survivor count (dose: 12.5 mg/kg/injection, schedule: Q01DX005 (ip), vehicle: Klucel (hydroxypropylcellulose) (HPC)) is 9 of 10; the survivor count under setting [2] was 9 of 10 (2×); the survivor count (dose: 20.0 mg/kg/injection, schedule: Q01DX005 (ip), vehicle: other) is 5 of 8; the survivor count (dose: 20.0 mg/kg/injection, schedule: Q01DX005 (ip), vehicle: saline) was 7 of 8. Moreover, the survivor count (dose: 24.0 mg/kg/injection, schedule: Q01DX005 (ip), vehicle: Klucel (hydroxypropylcellulose) (HPC)) was 7 of 10; the survivor count (dose: 25.0 mg/kg/injection, schedule: Q01DX005 (ip), vehicle: Klucel (hydroxypropylcellulose) (HPC)) is given as 7 of 10; the survivor count (dose: 32.0 mg/kg/injection, schedule: Q01DX005 (ip), vehicle: Klucel (hydroxypropylcellulose) (HPC)) is on record as 4 of 10; the survivor count (dose: 32.0 mg/kg/injection, schedule: Q01DX005 (ip), vehicle: saline) is 1 of 10 and 9 of 10; the survivor count (dose: 40.0 mg/kg/injection, schedule: Q01DX005 (ip), vehicle: other) is given as 1 of 8; the survivor count (dose: 40.0 mg/kg/injection, schedule: Q01DX005 (ip), vehicle: saline) is recorded as 2 of 8. Moreover, the survivor count reads like this: (dose: 48.0 mg/kg/injection, schedule: Q01DX005 (oral), vehicle: Klucel (hydroxypropylcellulose) (HPC)) 6 of 6; (dose: 64.0 mg/kg/injection, schedule: Q01DX005 (ip), vehicle: saline) 0 of 10 and 3 of 10; (dose: 96.0 mg/kg/injection, schedule: Q01DX005 (oral), vehicle: Klucel (hydroxypropylcellulose) (HPC)) 5 of 6; (dose: 128.0 mg/kg/injection, schedule: Q01DX005 (ip), vehicle: saline) 0 of 10 (2×).
In the case of `Cc1cn(C2CC(O)C(CO)O2)c(=O)[nH]c1=O` (stereo unspecified), the survivor count is 4 of 10 on day 6 (dose: 6000.0 mg/kg/injection, schedule: Q04DX003 (ip), vehicle: saline with Tween-80) and 7 of 10 (dose: 6400.0 mg/kg/injection, schedule: Q01DX005 (ip), vehicle: saline with Tween-80).
Turning to `COC1OC(CNC(=O)N(C)N=O)C(O)C(O)C1O` (stereo unspecified), the T/C is 127 % of control (dose: 25.0 mg/kg/injection, schedule: Q01DX005 (ip), vehicle: saline); 145 % of control (dose: 50.0 mg/kg/injection, schedule: Q01DX005 (ip), vehicle: saline); 141 and 145 % of control (dose: 100.0 mg/kg/injection, schedule: Q01DX005 (ip), vehicle: saline); 138 and 140 % of control (dose: 200.0 mg/kg/injection, schedule: Q01DX005 (ip), vehicle: saline); 132 % of control (dose: 400.0 mg/kg/injection, schedule: Q01DX005 (ip), vehicle: saline). Besides, under “dose: 800.0 mg/kg/injection, schedule: Q01DX005 (ip), vehicle: saline”, the survivor count is 10 of 10.
As for `CN(C)CC(=O)c1ccc(O)c(O)c1`, the T/C is, setting by setting: (dose: 100.0 mg/kg/injection, schedule: Q01DX001 (ip), vehicle: saline) 100, 103 [survivors not given], 104 [survivors not given], 112 % of control [survivors not given]; (dose: 200.0 mg/kg/injection, schedule: Q01DX001 (ip), vehicle: saline) 94 [survivors not given], 100 [survivors not given], 102, 106 % of control [survivors not given]; (dose: 400.0 mg/kg/injection, schedule: Q01DX001 (ip), vehicle: saline) 88, 88 [survivors not given], 105 [survivors not given], 106 % of control [survivors not given]; (dose: 800.0 mg/kg/injection, schedule: Q01DX001 (ip), vehicle: saline) 98, 98 [survivors not given], 102 [survivors not given], 109 % of control [survivors not given].
Take `CN(C)/N=N/c1[nH]ncc1C(N)=O`: the T/C is 134 % of control under setting [2]; 139 % of control (dose: 32.0 mg/kg/injection, schedule: Q01DX005 (ip), vehicle: saline with Tween-80); 142 % of control (dose: 64.0 mg/kg/injection, schedule: Q01DX005 (ip), vehicle: saline with Tween-80). For the same molecule, the survivor count is reported as 10 of 10 (dose: 256.0 mg/kg/injection, schedule: Q01DX005 (ip), vehicle: saline with Tween-80) and 9 of 10 (dose: 512.0 mg/kg/injection, schedule: Q01DX005 (ip), vehicle: saline with Tween-80).
Regarding `CC[C@H]1CN2CCc3cc(OC)c(OC)cc3[C@@H]2C[C@@H]1C[C@H]1NCCc2cc(OC)c(OC)cc21`, the T/C reads like this: (dose: 4.0 mg/kg/injection, schedule: Q01DX001 (ip), vehicle: Klucel (hydroxypropylcellulose) (HPC)) 100, 104 [survivors not given], 107 [survivors not given], 110 % of control [survivors not given]; (dose: 8.0 mg/kg/injection, schedule: Q01DX001 (ip), vehicle: Klucel (hydroxypropylcellulose) (HPC)) 95 [survivors not given], 98, 99 [survivors not given], 112 % of control [survivors not given]; (dose: 16.0 mg/kg/injection, schedule: Q01DX001 (ip), vehicle: Klucel (hydroxypropylcellulose) (HPC)) 92, 92 [survivors not given], 98 [survivors not given], 99 % of control [survivors not given]; (dose: 32.0 mg/kg/injection, schedule: Q01DX001 (ip), vehicle: Klucel (hydroxypropylcellulose) (HPC)) 89, 105 [survivors not given] (2×), 107 % of control [survivors not given]. For the same molecule, the survivor count under setting [1] was 1 of 10 and 9 of 10.
`COc1cccc2c1C(=O)c1c(O)c3c(c(O)c1C2=O)C[C@@](O)(C(C)=O)C[C@@H]3OC1CC(N)C(O)C(C)O1` (stereo partly specified): the survivor count was 10 of 10 (dose: 2.0 mg/kg/injection, schedule: Q01DX005 (ip), vehicle: water); 9 of 10 and 10 of 10 (dose: 4.0 mg/kg/injection, schedule: Q01DX005 (ip), vehicle: water); 7 of 10 and 8 of 10 (dose: 8.0 mg/kg/injection, schedule: Q01DX005 (ip), vehicle: water); 4 of 10 (dose: 16.0 mg/kg/injection, schedule: Q01DX005 (ip), vehicle: water); 0 of 10 (dose: 32.0 mg/kg/injection, schedule: Q01DX005 (ip), vehicle: water).
With `CCC(=O)O[C@H]1CC[C@H]2[C@@H]3CC[C@H]4CC(=O)[C@H](C)C[C@]4(C)[C@H]3CC[C@]12C`, the survivor count (dose: 512.0 mg/kg/injection, schedule: Q01DX005 (ip), vehicle: Klucel (hydroxypropylcellulose) (HPC)) was 4 of 6.
